Data as given in PubChem BioAssay AID720505 (Drosophila RNAi Screening Center, 2013).
In all, the deposit lists about 20,000 reagents; shown is an unselected part of those with a known target gene and a result. Over the whole deposit, about 2,100 (10%) were called active. 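Raw plate signals without normalisation; calls rest on control-based scores that were not deposited; replicate 2 separates called from uncalled poorly.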 Unmarked entries are inactive. Reagents against one gene are numbered here. A plus sign joins genes that one reagent is predicted to hit. Not stated in the record: the amount of reagent, the time to read-out.

Test: 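Knock-downs that reduce calcium influx once internal stores are emptied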 (primary screen)
Cells: Drosophila S2R+ cells
Reagents: long dsRNA against Drosophila genes
Challenge: thapsigargin (2 µM) in calcium-free buffer to empty internal stores, then 2 mM calcium added back
Detection: 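Stores emptied by 2 µM thapsigargin without calcium, then 2 mM calcium re-added; fluo-4 fluorescence followed by FLIPR in 384-well plates, per-well averaged endpoint, raw; two screen passes, some wells retested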
Scale: calcium signal and retest calcium signal: higher = more calcium entry after store depletion
Call rule: 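Knock-downs counted as hits when calcium entry dropped relative to STIM1 positive and Rho1 negative controls present on each plate; roughly 1500 genes called, with reductions of differing size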
Meaning of the calls: active = called as lowering calcium entry; inactive = not called

Depletion of rost (rolling stone) gave: calcium signal, replicate 1 = 95.4; calcium signal, replicate 2 = 104.
kin17 scored calcium signal, replicate 1 = 81.2; calcium signal, replicate 2 = 130.
After knock-down of CG42565, the screen gave calcium signal, replicate 1 = 105; calcium signal, replicate 2 = 146.
Silencing of asl (asterless) resulted in: calcium signal, replicate 1 = 149; calcium signal, replicate 2 = 178.
CG10910 showed calcium signal, replicate 1 = 129; calcium signal, replicate 2 = 131; retest calcium signal, replicate 1 = 89.2; retest calcium signal, replicate 2 = 86.9.
Silencing of Ir56c (Ionotropic receptor 56c) came out at: calcium signal, replicate 1 = 181; calcium signal, replicate 2 = 120.
CG7352 showed calcium signal, replicate 1 = 150; calcium signal, replicate 2 = 152.
For CG4733, the entry reads calcium signal, replicate 1 = 170; calcium signal, replicate 2 = 152.
Mtr3 showed calcium signal, replicate 1 = 74.6; calcium signal, replicate 2 = 130.
Against CG42676 #1, the entry reads calcium signal, replicate 1 = 183; calcium signal, replicate 2 = 108.
Silencing of CG42676 #2 gave: calcium signal, replicate 1 = 110; calcium signal, replicate 2 = 128.
For Pburs (Partner of Bursicon), the values are calcium signal, replicate 1 = 79 (active); calcium signal, replicate 2 = 113.
Depletion of CG2267 came out at: calcium signal, replicate 1 = 216; calcium signal, replicate 2 = 189.
Knock-down of CG33465 gave: calcium signal, replicate 1 = 70.7; calcium signal, replicate 2 = 81.
After knock-down of CHKov2 (CHK domain ov2), the record shows calcium signal, replicate 1 = 72.2 (active); calcium signal, replicate 2 = 72.
Knock-down of sncRNA:430e + His2A:CG33859 + His2A:CG33817 + 37 more resulted in: calcium signal, replicate 1 = 49.4 (active); calcium signal, replicate 2 = 75.1.
dpn (deadpan) showed calcium signal, replicate 1 = 133; calcium signal, replicate 2 = 111.
yellow-f2 scored calcium signal, replicate 1 = 94.7; calcium signal, replicate 2 = 136.
For BG642163 #1, the values are calcium signal, replicate 1 = 81.1; calcium signal, replicate 2 = 97.3.
BG642163 #2 showed calcium signal, replicate 1 = 114; calcium signal, replicate 2 = 106.
After knock-down of Cht12 (Chitinase 12), the screen gave calcium signal, replicate 1 = 104; calcium signal, replicate 2 = 9829.
Against alpha-Est10 (alpha-Esterase-10) the deposit lists calcium signal, replicate 1 = 145; calcium signal, replicate 2 = 129.
After knock-down of eEFSec, the record shows calcium signal, replicate 1 = 127; calcium signal, replicate 2 = 96.2.
CG10359 scored calcium signal, replicate 1 = 99.6; calcium signal, replicate 2 = 138.
After knock-down of CG13607, the screen gave calcium signal, replicate 1 = 215; calcium signal, replicate 2 = 161.
CG17239 showed calcium signal, replicate 1 = 160; calcium signal, replicate 2 = 162.
Silencing of CG11807 came out at: calcium signal, replicate 1 = 121; calcium signal, replicate 2 = 130.
Strn-Mlck (Stretchin-Mlck) #1 showed calcium signal, replicate 1 = 135; calcium signal, replicate 2 = 121.
Strn-Mlck (Stretchin-Mlck) #2 showed calcium signal, replicate 1 = 68 (active); calcium signal, replicate 2 = 80.4.
With knock-down of Strn-Mlck (Stretchin-Mlck) #3 the results were calcium signal, replicate 1 = 117; calcium signal, replicate 2 = 112.
Strn-Mlck (Stretchin-Mlck) #4 showed calcium signal, replicate 1 = 93; calcium signal, replicate 2 = 77.
